# From the supplement of paper PMC4635364
# Counter-ions that a name gives are not always drawn. Some of the results follow. This data set is noisy: repeats of one test often differ as much as different tests do.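 Cells: ReNCell VM human fetal ventral-midbrain neural progenitors, differentiated mitogen-free. Blinded raters compared doublecortin-stained (early neurons) or tyrosine hydroxylase-stained (dopaminergic neurons) images with untreated wells, where 0 means no change. After repeats and both raters were averaged, compounds scoring 2 or above became hits for retesting.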
# System: ReNCell VM
# Test: dopaminergic neuron differentiation score (TH+ cell fraction vs untreated, manual image score) (score (0 to 3)); higher = more TH+ dopaminergic neuron differentiation
# Conditions: library: Tocriscreen; 2 uM; 4 weeks; BDNF 10 ng/ml + GDNF 10 ng/ml
row,Compound,dopaminergic neuron differentiation score
1,Cc1ncsc1CCCl [Chlormethiazole hydrochloride],inactive: 0
2,O=C1/C(=C/c2ccccc2)C[C@@]2(O)[C@H]3Cc4ccc(O)c5c4[C@@]2(CCN3CC2CC2)[C@H]1O5 [BNTX maleate],inactive: 0
3,Oc1ccc2c3c1O[C@H]1c4c(c5ccccc5n4Cc4ccccc4)C[C@@]4(O)C(C2)N(CC2CC2)CC[C@]314 [N-Benzylnaltrindole hydrochloride],inactive: 1
4,CN(C)CCN(C)CCc1ccc(Cl)c(Cl)c1 [BD 1047 dihydrobromide],inactive: 0
5,COC(=O)/C=C/C(=O)N[C@@H]1CC[C@@]2(O)[C@H]3Cc4ccc(O)c5c4[C@@]2(CCN3CC2CC2)[C@H]1O5 [?-Funaltrexamine hydrochloride],inactive: 0
6,N#Cc1ccc(N2CCN(C(=O)COc3ccc4[nH]cc(CCN)c4c3)CC2)cc1 [Donitriptan hydrochloride],inactive: 0
7,COC(=O)[C@@H](N)CCCNC(=N)N[N+](=O)[O-] [L-NAME hydrochloride],inactive: 0
8,CC(=O)C1=C(O)[C@@H]2[C@H]3c4c[nH]c5cccc(c45)C[C@H]3C(C)(C)N2C1=O [Cyclopiazonic Acid],inactive: 0
